Results published in US7368427 (dated 2008).

Test: general procedure: Boc solid-phase peptide synthesis; MBHA resin; diisopropylcarbodiimide; HBTU/DIEA
Conditions: whole synthesis, scale 0.20 mmol

Substance: [Aib^8, A6c^32]hGLP-1(7-36)NH2
- final HPLC purity (analytical HPLC): >99%
- isolated mass: 92 mg
